The values that follow come from PMC5731996.

By UniProt entry, the sequences of proteins in these tests, tags left out. Residues count along the entry.
UniProt P16422, 24-314: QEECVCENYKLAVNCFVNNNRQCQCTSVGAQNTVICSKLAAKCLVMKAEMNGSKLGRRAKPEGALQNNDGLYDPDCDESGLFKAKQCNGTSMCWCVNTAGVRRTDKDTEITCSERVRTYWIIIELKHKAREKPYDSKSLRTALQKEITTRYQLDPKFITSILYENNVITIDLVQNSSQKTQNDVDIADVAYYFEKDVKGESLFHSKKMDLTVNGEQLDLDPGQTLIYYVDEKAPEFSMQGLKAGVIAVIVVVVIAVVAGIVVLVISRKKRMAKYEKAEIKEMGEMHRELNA

The exact form of at least one protein or probe is not confirmed. Where cells or extracts were used, other partners may take part. No signal at the amounts used counts as a negative.

The data set addresses EpCAM on KATO III cells (UniProt P16422). Description: flow cytometry on cells. Conditions: no fluorescent signal on KATO III; PBS, 5 mM MgCl2; aptamer folded at 95 C then ice; 1 h at 37 C; Kd: 10 nM EpCAM, 10-400 nM Ep1; pH not stated; protein on the cell surface; label: Cy5.5; single-stranded DNA.

For the sequence “CCCTACCTAGGTTCGAATGACCGAGTAACCCACCACCGCAGACCTGCCCAACATACGCTATCCTTAAGCC [Nonspecific sequence (NS), Cy5.5-labeled]”, the binding result is listed as “no binding”.
